This note sets out measurements from article PMC9866149.

These are yes or no findings as the source states them, for the method shown. In cells and extracts the contact can be indirect. Binding can be weak; no strength is given.

For the experiment, the target named is P21-activated kinase 1 (PAK1) (pig (endogenous in porcine oocytes)). Description: co-IP; lysate of approximately 700 porcine oocytes (first meiotic division, 28 h) incubated with anti-PAK1 antibody at 4 °C overnight, protein A and G beads 3 h at 4 °C, immunoblotting; rabbit IgG as control. (In western blotting, separated proteins are transferred to a membrane and probed.)

B1: Aurora A (protein, UniProt A5GFW1 1-402)
chain: MDKCKENCISGLKTTVPPGDGPKRVPVTQHFPAQHLPSANSGQAQRVLCPSNSSQRLPSHTQKLVSSHKPVQNLKQKQSQATSGPRPVSRPLSNTQQSEQPQPAAPGNNPEKEAASKQKNEESKKRQWALEDFEIGRPLGKGKFGNVYLAREKQSKFILALKVLFKTQLEKAGVEHQLRREVEIQSHLRHPNILRLYGYFHDATRVYLILEYAPLGAVYRELQKLSKFDEQRTATYITELANALSYCHSKRVIHRDIKPENLLLGSAGELKIADFGWSVHAPSSRRTTLCGTLDYLPPEMIEGRMHDEKVDLWSLGVLCYEFLVGKPPFEANTYQETYKRISRVEFTFPDFVPEGARDLISRLLKHNPSHRPTLKEVLEHPWITANSKPASSHKKESTSKQP
As to B1, the binding entry was “binds”.
